# The supplement of paper PMC8090911
# Structures can show the parent of a compound that is named as a salt. The list shows a part of the results. Repeats are few or missing, and single values can be far off.
# Tested on: p95-ErbB2-MCF7
# Assay: perinuclear lysosome accumulation (PNLA, size of LAMP2 puncta), robust Z-score vs plate median; higher = more perinuclear lysosome accumulation (reversal of invasive lysosome distribution)
# Conditions: 5 µM; 24 h
row,SMILES,perinuclear lysosome accumulation
1,C[N+]1(CCCCC[N+]2(C)CCCC2)CCCC1 [Pentolinium bitartrate],0.432
2,Oc1ncnc2[nH]ncc12 [Allopurinol],0.409
3,CNCCCC1c2ccccc2C=Cc2ccccc21 [Protriptyline hydrochloride],0.94
4,CCCCCCC[N+](CC)(CC)CCCCc1ccc(Cl)cc1 [Clofilium tosylate],0.766
5,C[C@]12CCC(=O)C=C1CC[C@@H]1[C@@H]2[C@@H](O)C[C@@]2(C)[C@H]1CC[C@]2(O)C(=O)CO [Hydrocortisone base],-0.843
6,CC(C(=O)O)c1ccc2c(c1)Cc1cccnc1O2 (stereo unspecified) [Pranoprofen],-0.357
7,CSc1ccc2c(c1)C(N1CCN(C)CC1)Cc1ccccc1S2 (stereo unspecified) [Methiothepin maleate],1.88
8,Cc1c(C)c2c(c(C)c1O)CCC(C)(COc1ccc(CC3SC(=O)NC3=O)cc1)O2 (stereo unspecified) [Troglitazone],-0.129
9,COC(c1ccccc1)(c1ccccc1)[C@H](Oc1nc(C)cc(C)n1)C(=O)O [Ambrisentan],1.76
10,COc1ccc([C@@H]2CC(=O)c3c(O)cc(O[C@@H]4O[C@H](CO[C@@H]5O[C@@H](C)[C@H](O)[C@@H](O)[C@H]5O)[C@@H](O)[C@H](O)[C@H]4O)cc3O2)cc1O [Hesperidin],-0.239
11,CC(C)(C(=O)O)c1ccc(C(O)CCCN2CCC(C(O)(c3ccccc3)c3ccccc3)CC2)cc1 (stereo unspecified) [Fexofenadine HCl],-1.78
12,NS(=O)(=O)c1cc(C(=O)O)cc(N2CCCC2)c1Oc1ccccc1 [Piretanide],-1.6
13,Cc1cc(C(C)(C)C)c(O)c(C)c1CC1=NCCN1 [Oxymetazoline hydrochloride],-0.911
14,CN(C)CCCN1c2ccccc2Sc2ccccc21 [Promazine hydrochloride],0.618
15,O=C(O)c1cccnc1Nc1cccc(C(F)(F)F)c1 [Niflumic acid],0.0606
16,COc1ccc(C(Cl)=C(c2ccc(OC)cc2)c2ccc(OC)cc2)cc1 [Chlorotrianisene],-3.12
17,Cc1oncc1C(=O)Nc1ccc(C(F)(F)F)cc1 [Leflunomide],1.19
18,CCOC(=O)[C@H](CCc1ccccc1)N[C@@H](C)C(=O)N1Cc2ccccc2C[C@H]1C(=O)O [Quinapril HCl],-0.686
19,CC(CCc1ccccc1)NCC(O)c1ccc(O)c(C(N)=O)c1 (stereo unspecified) [Labetalol hydrochloride],-1.4
20,Cc1onc(-c2c(Cl)cccc2Cl)c1C(=O)N[C@@H]1C(=O)N2[C@@H]1SC(C)(C)[C@@H]2C(=O)O [Dicloxacillin sodium salt],-0.609
21,CC[N+](C)(C)Cc1ccccc1Br [Bretylium tosylate],-0.767
22,C[N+](C)(C)CCCCCC[N+](C)(C)C [Hexamethonium dibromide dihydrate],-1.65
23,CN(C)/N=N/c1[nH]cnc1C(N)=O [Dacarbazine],-2.05
24,Cc1cc2c(cc1S(N)(=O)=O)S(=O)(=O)CCC2 [Meticrane],0.844

row,SMILES,perinuclear lysosome accumulation
1,Clc1cnccn1 [2-Chloropyrazine],0.732
2,CC1(C)S[C@@H]2[C@H](NC(=O)[C@H](NC(=O)N3CCNC3=O)c3ccccc3)C(=O)N2[C@H]1C(=O)O [Azlocillin sodium salt],-1.2
3,COC(=O)Nc1nc2cc(C(=O)c3ccccc3)ccc2[nH]1 [Mebendazole],0.965
4,CC1(C)S[C@@H]2[C@H](NC(=O)[C@H](C(=O)O)c3ccsc3)C(=O)N2[C@H]1C(=O)O [Ticarcillin sodium],0.952
5,CN[C@@H]1[C@@H](O)[C@@H](O[C@@H]2[C@@H](O)[C@H](O[C@H]3OC(CN)=CC[C@H]3N)[C@@H](N)C[C@H]2N)OC[C@]1(C)O [Sisomicin sulfate],0.454
6,O=C1CN(/N=C/c2ccc(-c3ccc([N+](=O)[O-])cc3)o2)C(=O)N1 [Dantrolene sodium salt],0.988
7,CCOC(=O)n1ccn(C)c1=S [Carbimazole],-0.554
8,C[C@H](N)[C@H](O)c1cccc(O)c1 [Metaraminol bitartrate],0.894
9,CCN(CC)CCOC(=O)C(Cc1cccc2ccccc12)CC1CCCO1 (stereo unspecified) [Nafronyl oxalate],0.0859
10,Cc1ccccc1OCC(O)CO (stereo unspecified) [Mephenesin],0.0327
11,CCN(CC)C(=S)SSC(=S)N(CC)CC [Disulfiram],-2.33
12,C/C(=C(\CCOP(=O)(O)O)SC(=O)c1ccccc1)N(C=O)Cc1cnc(C)nc1N [Benfotiamine],0.541
13,O=C(CCCCCCC(=O)Nc1ccccc1)NO [Vorinostat],3.66
14,CC[C@H]1OC(=O)C[C@@H](O)[C@H](C)[C@@H](O[C@@H]2O[C@H](C)[C@@H](O[C@H]3C[C@@](C)(O)[C@@H](O)[C@H](C)O3)[C@H](N(C)C)[C@H]2O)[C@@H](CC=O)C[C@@H](C)C(=O)/C=C/C(C)=C/[C@@H]1CO[C@@H]1O[C@H](C)[C@@H](O)[C@@H](OC)[C@H]1OC [Tylosin],-1.38
15,C[C@]12C[C@H](O)[C@H]3[C@@H](CCC4=CC(=O)CC[C@@]43C)[C@@H]1CC[C@@H]2C(=O)CO [Corticosterone],-2.01
16,Nc1nc2c(ncn2COCCO)c(=O)[nH]1 [Acyclovir],-0.235
17,CCCCCN(CCCCC)C(=O)C(CCC(=O)O)NC(=O)c1ccc(Cl)c(Cl)c1 (stereo unspecified) [Lorglumide sodium salt],2.04
18,COc1ccc(C(=O)c2ccccc2)c(O)c1 [Oxybenzone],-0.0942
19,COc1c(N2C[C@@H]3CCCN[C@@H]3C2)c(F)cc2c(=O)c(C(=O)O)cn(C3CC3)c12 [Moxifloxacin],-1.56
20,CC(=O)OCC(=O)[C@@]1(O)[C@H](C)C[C@H]2[C@@H]3CCC4=CC(=O)C=C[C@]4(C)[C@@]3(F)[C@@H](O)C[C@@]21C [Dexamethasone acetate],-1.71
21,COc1ncnc(NS(=O)(=O)c2ccc(N)cc2)c1OC [Sulfadoxine],0.225
22,CCOC(=O)C1=C(C)NC(C)=C(C(=O)OCC)C1c1ccccc1/C=C/C(=O)OC(C)(C)C [Lacidipine],1.06
23,CCOc1cc(CC(=O)N[C@@H](CC(C)C)c2ccccc2N2CCCCC2)ccc1C(=O)O [Repaglinide],-0.628
24,CCCCN(CCCC)CCC(O)c1cc2c(Cl)cc(Cl)cc2c2cc(C(F)(F)F)ccc12 (stereo unspecified) [Halofantrine hydrochloride],3.08

# Some of these compounds in order of molecular weight, rising.
row,SMILES,perinuclear lysosome accumulation
8,C[C@H](N)[C@H](O)c1cccc(O)c1 [Metaraminol bitartrate],0.894
10,Cc1ccccc1OCC(O)CO (stereo unspecified) [Mephenesin],0.0327
3,COC(=O)Nc1nc2cc(C(=O)c3ccccc3)ccc2[nH]1 [Mebendazole],0.965
6,O=C1CN(/N=C/c2ccc(-c3ccc([N+](=O)[O-])cc3)o2)C(=O)N1 [Dantrolene sodium salt],0.988
17,CCCCCN(CCCCC)C(=O)C(CCC(=O)O)NC(=O)c1ccc(Cl)c(Cl)c1 (stereo unspecified) [Lorglumide sodium salt],2.04

# Carrying on:

row,SMILES,perinuclear lysosome accumulation
1,C#C[C@]1(O)CC[C@H]2[C@@H]3CCc4cc(O)ccc4[C@H]3CC[C@@]21C [Ethinylestradiol],0.761
2,CCCC1O[C@@H]2C[C@H]3[C@@H]4CCC5=CC(=O)C=C[C@]5(C)[C@H]4[C@@H](O)C[C@]3(C)[C@]2(C(=O)CO)O1 (stereo partly specified) [Budesonide],-0.0449
3,NS(=O)(=O)c1cc(Cl)c(Cl)c(S(N)(=O)=O)c1 [Dichlorphenamide],2.42
4,CCN1CCCC(OC(=O)C(c2ccccc2)c2ccccc2)C1 (stereo unspecified) [Piperidolate hydrochloride],-0.127
5,Cc1onc(-c2c(F)cccc2Cl)c1C(=O)N[C@@H]1C(=O)N2[C@@H]1SC(C)(C)[C@@H]2C(=O)O [Flucloxacillin sodium],0.497
6,CN(C)CCCSC(=N)N [Dimaprit dihydrochloride],-1.85
7,O=C(NCCN1CCOCC1)c1ccc(Cl)cc1 [Moclobemide],-0.407
8,CN(C/C=C/c1ccccc1)Cc1cccc2ccccc12 [Naftifine hydrochloride],-1.47
9,CC(=O)CCCCn1c(=O)c2c(ncn2C)n(C)c1=O [Pentoxifylline],0.943
10,CN1C(=O)OC(C)(C)C1=O [Trimethadione],-0.83
11,OCCN1CCN(CCCN2c3ccccc3C=Cc3ccccc32)CC1 [Opipramol dihydrochloride],-0.144
12,CC(C)NC[C@H](O)COc1cccc2ccccc12 [(S)-propranolol hydrochloride],-2.41
13,C[C@@H](O)[C@H]1C(=O)N2C(C(=O)O)=C(S[C@@H]3CN[C@H](C(=O)N(C)C)C3)[C@H](C)[C@H]12 [Meropenem],0.866
14,CC(=O)O[C@H]1C[C@@H]2CC[C@@H]3[C@H](CC[C@@]4(C)[C@H]3C[C@H]([N+]3(C)CCCCC3)[C@@H]4OC(C)=O)[C@@]2(C)C[C@@H]1N1CCCCC1 [Vecuronium bromide],0.624
15,CC1(C)O[C@@H]2C[C@H]3[C@@H]4CCC5=CC(=O)CC[C@]5(C)[C@@]4(F)[C@@H](O)C[C@]3(C)[C@]2(C(=O)CCl)O1 [Halcinonide],-0.453
16,C[C@]12C=CC(=O)C=C1CC[C@H]1[C@@H]3C[C@@H](O)[C@](O)(C(=O)CO)[C@@]3(C)C[C@H](O)[C@@]12F [Triamcinolone],-1.63
17,CCN(CC)C(=O)/C(C#N)=C/c1cc(O)c(O)c([N+](=O)[O-])c1 [Entacapone],0.914
18,OC(c1cc(C(F)(F)F)nc2c(C(F)(F)F)cccc12)C1CCCCN1 (stereo unspecified) [Mefloquine hydrochloride],2.55
19,CNCCCC12CCC(c3ccccc31)c1ccccc12 [Maprotiline hydrochloride],0.854
20,C[C@@H]1C[C@H]2[C@@H]3C[C@H](F)C4=CC(=O)C=C[C@]4(C)[C@@]3(Cl)[C@@H](O)C[C@]2(C)[C@H]1C(=O)COC(=O)C(C)(C)C [Clocortolone pivalate],-0.315
21,CN(C)CCn1nnnc1SCC1=C(C(=O)O)N2C(=O)[C@@H](NC(=O)Cc3csc(N)n3)[C@H]2SC1 [Cefotiam hydrochloride],0.706
22,CC(=O)N[C@@H](CS)C(=O)O [Acetylcysteine],-2.56
23,CC(=O)O[C@H]1C[C@@]2(C)[C@@H](C[C@@H](O)[C@H]3[C@@]4(C)CC[C@@H](O)[C@@H](C)[C@@H]4CC[C@@]32C)/C1=C(\CCC=C(C)C)C(=O)O [Fusidic acid sodium salt],0.364
